This note sets out measurements from paper PMC4235346.

Construct, isoform or probe ends are uncertain for at least one entry. For part of these data: The comparison behind a weaker result is the experiment's own reference, which may not be listed here.

Series [1] concerns InrS (Synechocystis PCC 6803). Put plainly: fluorescence anisotropy (stoichiometry). The following applies: apo, 5 mM EDTA, 1 mM DTT, aerobic, 1 uM DNA, inflection at ~4 uM protomer, 10 nM labelled DNA, 10 mM HEPES pH 7.0, 60 mM NaCl, 240 mM KCl, 25 C, anaerobic, 5 mM EDTA for apo or 1.2x (InrS) / 2.2x (ZiaR) metal excess, recombinant protein. On the technique in general: Fluorescence polarisation rises when a labelled molecule tumbles more slowly, as on binding a larger partner.

In series [2] the test system is InrS (Synechocystis PCC 6803). The series can be described thus: fluorescence anisotropy (dissociation of pre-formed complex). The following applies: ZnSO4 titration, 1 uM InrS protomer, two Zn(II) per tetramer drive InrS from DNA, 10 nM labelled DNA, 10 mM HEPES pH 7.0, 60 mM NaCl, 240 mM KCl, 25 C, anaerobic, 5 mM EDTA for apo or 1.2x (InrS) / 2.2x (ZiaR) metal excess, recombinant protein.

The test system of series [3] is InrS (Synechocystis PCC 6803). The series can be described thus: size exclusion co-migration. The following applies: apo, 5 mM EDTA, 2 mM DTT, aerobic, 40 uM protomer binds all of 10 uM DNA (one tetramer per DNA); recombinant protein.

Consider “TCATCAATATCCCCCCTGGGGGCATAGAATAGA (double strand) [nrsDProFA (nrsD operator-promoter)]”, for which the binding result in series [1] is “binds”; in series [2] it was “binds more weakly”.
With “TCATCAATATCCCCCCTGGGGGCATAGAATAGA (double strand) [nrsDProFA, unlabelled]”, the binding result in series [3] was “binds”.
